Laboratory results: PMC10940101

Biological target: ATR with deletion of the N-terminal region
Test: co-IP; exogenous; proteins co-expressed from plasmids in HEK293T cells

binding: no binding
B1: Myc-tagged TRIM56 (exogenous, WT) (protein, UniProt Q9BRZ2 1-755)
chain: MVSHGSSPSLLEALSSDFLACKICLEQLRAPKTLPCLHTYCQDCLAQLADGGRVRCPECRETVPVPPEGVASFKTNFFVNGLLDLVKARACGDLRAGKPACALCPLVGGTSTGGPATARCLDCADDLCQACADGHRCTRQTHTHRVVDLVGYRAGWYDEEARERQAAQCPQHPGEALRFLCQPCSQLLCRECRLDPHLDHPCLPLAEAVRARRPGLEGLLAGVDNNLVELEAARRVEKEALARLREQAARVGTQVEEAAEGVLRALLAQKQEVLGQLRAHVEAAEEAARERLAELEGREQVARAAAAFARRVLSLGREAEILSLEGAIAQRLRQLQGCPWAPGPAPCLLPQLELHPGLLDKNCHLLRLSFEEQQPQKDGGKDGAGTQGGEESQSRREDEPKTERQGGVQPQAGDGAQTPKEEKAQTTREEGAQTLEEDRAQTPHEDGGPQPHRGGRPNKKKKFKGRLKSISREPSPALGPNLDGSGLLPRPIFYCSFPTRMPGDKRSPRITGLCPFGPREILVADEQNRALKRFSLNGDYKGTVPVPEGCSPCSVAALQSAVAFSASARLYLINPNGEVQWRRALSLSQASHAVAALPSGDRVAVSVAGHVEVYNMEGSLATRFIPGGKASRGLRALVFLTTSPQGHFVGSDWQQNSVVICDGLGQVVGEYKGPGLHGCQPGSVSVDKKGYIFLTLREVNKVVILDPKGSLLGDFLTAYHGLEKPRVTTMVDGRYLVVSLSNGTIHIFRVRSPDS

No constants are given. Whether binding was seen depends on the method and setting. Binding seen in cells or lysates may run through a third protein. Tags and fused reporters may be left off the sequences shown.
